From PMC12750601
These are yes or no findings as the source states them, for the method shown. In cells and extracts the contact can be indirect. Some binding calls cover weakened binding; strength is not graded here.

Chains of the proteins cited; added tags and fusions are not shown.
UniProt Q14145: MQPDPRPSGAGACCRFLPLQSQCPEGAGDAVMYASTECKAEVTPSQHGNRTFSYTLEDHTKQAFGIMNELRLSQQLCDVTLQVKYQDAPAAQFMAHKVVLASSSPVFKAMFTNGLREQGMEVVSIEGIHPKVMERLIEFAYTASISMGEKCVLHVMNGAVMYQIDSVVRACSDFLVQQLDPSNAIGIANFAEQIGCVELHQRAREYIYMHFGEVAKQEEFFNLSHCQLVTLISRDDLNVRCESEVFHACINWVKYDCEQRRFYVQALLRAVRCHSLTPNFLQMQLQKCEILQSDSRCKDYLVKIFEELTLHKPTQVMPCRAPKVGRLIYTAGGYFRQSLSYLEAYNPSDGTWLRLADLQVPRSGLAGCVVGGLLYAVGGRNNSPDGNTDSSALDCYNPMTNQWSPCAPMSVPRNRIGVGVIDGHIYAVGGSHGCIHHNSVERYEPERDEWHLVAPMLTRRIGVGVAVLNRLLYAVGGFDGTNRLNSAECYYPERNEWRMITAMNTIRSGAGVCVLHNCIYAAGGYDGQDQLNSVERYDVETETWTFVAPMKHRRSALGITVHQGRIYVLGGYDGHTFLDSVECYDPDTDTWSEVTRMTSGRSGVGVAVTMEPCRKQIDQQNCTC

Target: T1, Tribbles homolog 2 (human (endogenous in HepG2)) (UniProt Q92519)
T1 sequence: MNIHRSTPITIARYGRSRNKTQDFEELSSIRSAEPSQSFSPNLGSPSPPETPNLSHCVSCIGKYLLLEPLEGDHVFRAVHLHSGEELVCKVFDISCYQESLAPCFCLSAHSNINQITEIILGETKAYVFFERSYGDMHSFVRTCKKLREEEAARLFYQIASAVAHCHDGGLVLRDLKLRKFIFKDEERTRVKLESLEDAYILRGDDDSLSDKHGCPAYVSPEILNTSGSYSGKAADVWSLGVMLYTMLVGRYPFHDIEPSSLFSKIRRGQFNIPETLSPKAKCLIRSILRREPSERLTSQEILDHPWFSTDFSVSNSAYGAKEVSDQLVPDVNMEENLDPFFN
Assay: co-IP; IP of TRIB2 (anti-TRIB2 1:200, protein A/G magnetic beads, overnight at 4 °C, five washes with cell lysis buffer) from HepG2 lysate; immunoblot for KEAP1

KEAP1 (from UniProt Q14145 1-624)
binding: binds
